Assay results from the odorant receptor screen of Mainland et al. (2015).
“And” between values parts separate entries of the source, which are not always exact repeats. Equal entries are not always repeated. This is one part of the list. Each value is one well over the wells without odorant, computed here; the data are noisy.

Columns and labels:
Assay in all cases: odorant receptor activation (CRE luciferase / Renilla) (fold of no-odor wells); higher = more activation
Conditions in all cases: 100 µM
[1] = test system: OR51L1 clone 1534
[2] = test system: OR51M1 H91Q/L124F/I193T/P245H/F307L clone 1121
[3] = test system: OR51Q1 clone 1190
[4] = test system: OR51S1 clone 1699
[5] = test system: OR51T1 clone 1326
[6] = test system: OR51V1 clone 1700
[7] = test system: OR51V1 clone 1701
[8] = test system: OR52A1 S272P clone 1151
[9] = test system: OR52A4 clone 1719
[10] = test system: OR52A5 clone 1568
[11] = test system: OR52B2 clone 1210
[12] = test system: OR52B4 clone 1508
[13] = test system: OR52B6 T36A/L90H/A146T/H149R/V267I clone 1306
[14] = test system: OR52D1 clone 1164
[15] = test system: OR52E1 clone 1113
[16] = test system: OR52E2 H174R/R264C clone 1184
[17] = test system: OR52E4 V176I/R184M/R228H clone 1123
[18] = test system: OR52E5 P234L clone 1124
[19] = test system: OR52E6 clone 1196
[20] = test system: OR52E8 clone 1154

SMILES	odorant receptor activation [1]	odorant receptor activation [2]	odorant receptor activation [3]	odorant receptor activation [4]	odorant receptor activation [5]	odorant receptor activation [6]	odorant receptor activation [7]	odorant receptor activation [8]	odorant receptor activation [9]	odorant receptor activation [10]	odorant receptor activation [11]	odorant receptor activation [12]	odorant receptor activation [13]	odorant receptor activation [14]	odorant receptor activation [15]	odorant receptor activation [16]	odorant receptor activation [17]	odorant receptor activation [18]	odorant receptor activation [19]	odorant receptor activation [20]
CC1CCC(C(C)C)C(O)C1 (single isomer, unassigned; (+)) [(+)-menthol]	1.04	0.717	1.14	0.817	1.13	0.876	0.878	1.3	0.869	0.872	1.06	1.14	0.882	1.1	8.15	0.695	0.887	0.769	1.17	1.44
CCCCCCCC=O [octyl aldehyde]	0.969	1.08	1.06	0.773	0.621	0.919	0.812	1.06	0.669	0.799	0.932	0.813	0.215	1.12	1.14	1.15	0.797	0.75	1.08	1.21
CCCCCCOC(=O)CCC [hexyl butyrate]	0.96 and 0.885	1.15	0.833	0.821	0.775 and 0.747	0.768	0.794	0.977	0.913	0.995	1.23	0.574 and 0.988	0.986 and 1.02	1.06	0.398	1.01	1.24	1.23	1.15	1.09
COc1cc(C)ccc1O [2-methoxy-4-methylphenol]	0.683	0.921	0.987	0.898	0.945	0.914	1.01	1.12	0.956	0.944	1.1	0.744	1.02	1.38	5.06	0.7	0.723	0.898	1.75	1.01
O=C1CCCCCCCCCCCCCCO1 [pentadecalactone]	0.965	0.843	0.561	0.7	0.754	0.959	0.564	0.712	0.724	0.767	0.749	0.898	0.968	0.904	0.748	0.753	1	0.718	0.829	0.797
COC(=O)c1ccccc1 [methyl benzoate]	0.429 and 0.743		0.622		0.393			0.903			0.63	0.529 and 0.962	0.669	0.767	1.29	0.815			0.856	0.843
CCCCCC(C)=O [2-heptanone]	0.777 and 0.645		0.867		0.974			1.51			0.679	0.971 and 0.685	0.853	1.11	0.557	1.19			1.1	1.43
CC1COCc2cc3c(cc21)C(C)(C)C(C)C3(C)C (stereo not given) [galaxolide]	2.69 and 3.79	0.446 and 0.976	0.891		0.806 and 1.51			0.868			4.15	2.17 and 4.73		1.22	1.93	3.25	0.531 and 0.987	0.54 and 0.869	0.786	0.868
CC1=CCC(C(C)(C)O)CC1 (stereo not given) [terpineol]	0.819	0.944	0.942	1.19	0.959	1.17	0.67	1.07	1.29	0.994	1.09	0.7	1.13	1.35	1.05	0.932	0.884	0.824	1.01	1.17
C=C(C)C1CC=CCC1 (stereo not given) [r-limonene]	0.971 and 0.531 and 0.666	0.943	0.799 and 0.375	0.928		1.39	0.984	0.993 and 0.41	1.17	0.976	1.07 and 0.362	0.921 and 0.52 and 0.838	0.895 and 0.315	1.13 and 0.392	1.04 and 0.856	0.833 and 0.388	1.07	0.749	1.12 and 0.536	1.11 and 0.468
O=C1CCCCC1 [Cyclohexanone]	0.52 and 0.865		0.46		0.345			0.679			0.59	0.53 and 0.977	0.579	0.671	1.25	0.928			0.79	0.966
CC1CCC(C(C)C)C(O)C1 (single isomer, unassigned; (-)) [(-)-menthol]	3.38	0.919	0.937	0.764	0.692	1.08	0.892	0.94	0.88	1.15	0.972	4.26	0.809	1.09	10.4	0.733	1.08	0.715	1.46	1.08
CC12C=CCC1C1CCC3=CC(=O)CCC3(C)C1CC2 (stereo not given) [androstadienone]	0.816 and 1.19		0.906		1.11 and 0.925			0.943			1.27	0.476 and 1.38	0.875 and 1.48	0.615	0.538	1.27			1.06	0.922
CC(C)(O)CCCC1=CCC(C=O)CC1 (stereo not given) [lyral]		1.13		1.17		1.11	0.938		1.18	1.02							0.917	0.965		
C=C(C)C1CC=C(C)C(=O)C1 (stereo not given) [r-carvone]	0.846	1.15	0.622	0.772	0.786	0.952	0.644	1.09	0.757	0.7	0.68	0.913	0.756	1.07	0.868	0.824	1.12	0.893	1.01	0.918
CC(=O)OC(C)(C)C1CC=C(C)CC1 (stereo not given) [terpinyl acetate]	0.869	0.864	1.12	1.04	0.843	1.29	0.883	1.21	0.958	1	0.948	0.906	0.999	1.66	1.27	0.896	0.822	0.811	1.11	1.58

SMILES	odorant receptor activation [1]	odorant receptor activation [2]	odorant receptor activation [3]	odorant receptor activation [4]	odorant receptor activation [5]	odorant receptor activation [6]	odorant receptor activation [7]	odorant receptor activation [8]	odorant receptor activation [9]	odorant receptor activation [10]	odorant receptor activation [11]	odorant receptor activation [12]	odorant receptor activation [13]	odorant receptor activation [14]	odorant receptor activation [15]	odorant receptor activation [16]	odorant receptor activation [17]	odorant receptor activation [18]	odorant receptor activation [19]	odorant receptor activation [20]
CC12C=CCC1C1CCC3CC(=O)CCC3(C)C1CC2 (stereo not given) [androstenone]	0.978		3.23		1.3			5.52			5.46	0.89	1.35	5.05	6.2	2.8			9.79	4.38
CCCCCCCOC(C)=O [heptyl acetate]	0.611 and 1.15	1.14	1.07	0.67	1 and 0.753	0.845	0.885	0.909	0.861	0.832	1.4		0.92 and 1.47	0.537	0.528	0.76	1.21	1.33	1.12	1.01
C=CCc1ccc(OC(C)=O)c(OC)c1 [eugenol acetate]	1.78	1.61	2.21	1.63	1.6	1.55	2.45	2.06	2.37	2.09	1.66	1.66	1.32	1.6	1.51	1.74	0.898	1.23	1.94	1.73
O=C1CCCCCCCCCCCC(=O)OCCO1 [ethylene brassylate]	1.28	1.53	2.24	0.757	1.4	0.839	1.37	1.7	1.42	1.4	1.79	1.1	1.21	1.86	1.14	1.41	0.917	1.33	1.8	1.55
CCCCCCC=O [heptaldehyde]		1.45		0.903	0.388 and 0.862 and 0.91	0.798	0.87	0.336 and 0.942	0.979	1.02			0.493 and 0.983 and 1.12	0.317 and 0.514	1.17 and 1.05	0.344 and 1.02	1.54	1.48		
C=CCc1ccc(O)c(OC)c1 [eugenol]	0.901 and 0.697 and 1.18	1.43	1.38 and 1.64	0.961	1.1 and 1.56	0.698	1.05	2.44 and 1.06	1.36	1.41	1.86 and 1.3	1.48 and 0.994 and 1.09		2.28 and 1.11	0.678 and 1.16	1.8 and 1.43	0.835	1.26	2.13 and 1.53	1.7 and 1.27
CC(=O)OCC=C(C)CCC=C(C)C [geranyl acetate]	0.922 and 1.58	2.41	1.08	1.29	0.953 and 0.803	1.55	0.981	0.967	1.5	1.54	1.44		0.985 and 1.95	0.623	1.32	1.41	2.13	2.67	0.837	0.798
CC(=O)c1ccccc1 [acetophenone]	0.934 and 0.617		1.01		2.17			1.13			0.922	0.963 and 0.828	2.47	0.887	0.981	1.14			1.38	1.26
CCCCCC(=O)O [caproic acid]	2.56	0.899	0.906	1.05	0.83	0.783	0.716	0.922	0.336	1.18	1	1.12	1	0.701	0.917	0.896	0.916	0.78	1.05	1.01
C=C(C)C1CCC2=CC(=O)CC(C)C2(C)C1 (stereo not given) [amyl laurate]		2.24		1.96		2	1.79		0.713	1.02							1.9	1.96		
COc1ccccc1O [guaiacol]	0.543 and 1.14	1.41	0.899	1.03	0.898 and 0.99	0.991	0.731	0.955	0.948	1.05	1.32		0.877 and 1.45	0.644	0.789	1.08	1.36	1.48	1.02	1.23
c1ccc(Oc2ccccc2)cc1 [diphenyl ether]	1.07	1.06	0.918	0.705	0.976	0.658	0.932	0.814	0.734	0.837	0.978	1.32	0.923	0.995	0.845	0.856	0.866	1.16	0.957	0.973
CC1=NC(C)SC1C (stereo not given)	0.728 and 0.92		0.645		0.713			0.917			0.836	1.15 and 0.989	1.53	0.774	1.18	0.827			0.921	0.782
CC(C)(C)c1ccc(CCC=O)cc1 [bourgeonal]	0.71		0.715		0.661			0.662			0.678	0.982	0.626	0.634	0.695	0.651			0.7	0.803
CCCCCOC(C)=O [n-amyl acetate]	0.575 and 0.714	1	0.408	1.14	0.309	1.15	0.815	0.501	0.919	1.04	0.534	0.587 and 0.838	0.599	0.639	1.25	0.69	0.9	0.904	0.651	0.582

Given in CSV form: part of the list above.
SMILES,odorant receptor activation [1],odorant receptor activation [2],odorant receptor activation [3],odorant receptor activation [4],odorant receptor activation [5],odorant receptor activation [6],odorant receptor activation [7],odorant receptor activation [8],odorant receptor activation [9],odorant receptor activation [10],odorant receptor activation [11],odorant receptor activation [12],odorant receptor activation [13],odorant receptor activation [14],odorant receptor activation [15],odorant receptor activation [16],odorant receptor activation [17],odorant receptor activation [18],odorant receptor activation [19],odorant receptor activation [20]
CC(=O)OCC=C(C)CCC=C(C)C [geranyl acetate],0.922 and 1.58,2.41,1.08,1.29,0.953 and 0.803,1.55,0.981,0.967,1.5,1.54,1.44,,0.985 and 1.95,0.623,1.32,1.41,2.13,2.67,0.837,0.798
CC(=O)c1ccccc1 [acetophenone],0.934 and 0.617,,1.01,,2.17,,,1.13,,,0.922,0.963 and 0.828,2.47,0.887,0.981,1.14,,,1.38,1.26
CCCCCC(=O)O [caproic acid],2.56,0.899,0.906,1.05,0.83,0.783,0.716,0.922,0.336,1.18,1,1.12,1,0.701,0.917,0.896,0.916,0.78,1.05,1.01
C=C(C)C1CCC2=CC(=O)CC(C)C2(C)C1 (stereo not given) [amyl laurate],,2.24,,1.96,,2,1.79,,0.713,1.02,,,,,,,1.9,1.96,,
COc1ccccc1O [guaiacol],0.543 and 1.14,1.41,0.899,1.03,0.898 and 0.99,0.991,0.731,0.955,0.948,1.05,1.32,,0.877 and 1.45,0.644,0.789,1.08,1.36,1.48,1.02,1.23
c1ccc(Oc2ccccc2)cc1 [diphenyl ether],1.07,1.06,0.918,0.705,0.976,0.658,0.932,0.814,0.734,0.837,0.978,1.32,0.923,0.995,0.845,0.856,0.866,1.16,0.957,0.973
